Literature values, collected in patent US8207216B2, “Benzofuran-3-yl(indol-3-yl) maleimides as potent GSK3 inhibitors” (The Board of Trustees of the University of Illinois, priority 2006, dated 2012).
At least one compound was matched to its structure with a doubt left.

What was measured:
[1] = test system: mice; conditions: Hanania et al. 2005, Brody et al. 2003; cited from earlier work
[2] = test system: C57BL/6J mice; conditions: Hanania et al. 2005; cited from earlier work

[Li] [lithium]
Sensorimotor gating (prepulse inhibition) [1]: improve sensorimotor gating
Block of CDP + amphetamine hyperactivity by mood stabilizers [2]: blocked
